Assay results as given in PMC7246612, “The In Vitro Non-Tetramerizing ZapA^I83E Mutant Is Unable to Recruit ZapB to the Division Plane In Vivo in Escherichia coli” (International Journal of Molecular Sciences, 2020).
Results are given in words; binding and its absence hold for the method and conditions named. In cells and extracts the contact can be indirect. Some entries that bind do so weakly or less than the wild type. Tags and fused reporters may be left off the sequences shown.

Amino acid sequences for entries named in this document (tags omitted).
UniProt P0A9A6: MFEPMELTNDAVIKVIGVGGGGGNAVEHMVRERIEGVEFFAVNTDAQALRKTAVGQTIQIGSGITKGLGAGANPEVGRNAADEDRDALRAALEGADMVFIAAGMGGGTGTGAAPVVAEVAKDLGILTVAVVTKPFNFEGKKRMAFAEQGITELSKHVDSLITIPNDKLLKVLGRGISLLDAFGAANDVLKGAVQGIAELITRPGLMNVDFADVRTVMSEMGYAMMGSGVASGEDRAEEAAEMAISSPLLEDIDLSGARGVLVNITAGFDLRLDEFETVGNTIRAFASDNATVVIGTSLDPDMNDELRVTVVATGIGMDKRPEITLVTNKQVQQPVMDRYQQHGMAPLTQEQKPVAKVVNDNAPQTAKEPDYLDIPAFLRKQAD

How the values were obtained:
[1] = target: T1, mKO–PBP1a (inner membrane protein PBP1a fused to mKO) (UniProt P02918); experiment: FRET or BRET; in vivo FRET in E. coli TB28 ∆zapA cells; mKO fusion (donor) and mCh fusion (acceptor) expressed from plasmids; energy transfer efficiency (EfA) by spectral unmixing
T1 sequence: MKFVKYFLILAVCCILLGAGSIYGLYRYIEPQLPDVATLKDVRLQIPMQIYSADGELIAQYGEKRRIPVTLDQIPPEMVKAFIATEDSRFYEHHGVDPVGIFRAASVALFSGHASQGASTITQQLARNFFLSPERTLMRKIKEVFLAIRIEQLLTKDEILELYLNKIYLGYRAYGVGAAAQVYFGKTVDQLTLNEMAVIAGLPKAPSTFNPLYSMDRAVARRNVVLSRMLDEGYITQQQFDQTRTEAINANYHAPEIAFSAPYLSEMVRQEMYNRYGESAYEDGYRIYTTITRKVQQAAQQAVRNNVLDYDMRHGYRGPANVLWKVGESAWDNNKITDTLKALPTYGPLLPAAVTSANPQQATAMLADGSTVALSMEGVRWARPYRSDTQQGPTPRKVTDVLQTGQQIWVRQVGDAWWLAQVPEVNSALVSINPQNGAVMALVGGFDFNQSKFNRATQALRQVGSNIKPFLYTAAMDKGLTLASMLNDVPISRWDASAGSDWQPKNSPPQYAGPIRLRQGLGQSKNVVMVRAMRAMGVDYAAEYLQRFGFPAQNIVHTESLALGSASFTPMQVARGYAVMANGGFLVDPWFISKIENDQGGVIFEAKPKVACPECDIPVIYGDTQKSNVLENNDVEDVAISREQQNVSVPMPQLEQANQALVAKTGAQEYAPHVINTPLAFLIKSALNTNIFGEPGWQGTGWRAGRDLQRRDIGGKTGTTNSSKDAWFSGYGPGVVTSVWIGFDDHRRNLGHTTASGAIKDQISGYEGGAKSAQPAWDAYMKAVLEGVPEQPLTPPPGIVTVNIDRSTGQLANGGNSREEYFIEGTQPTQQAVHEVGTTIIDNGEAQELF

[2] = target: mKO–FtsZ (filamenting temperature-sensitive Z fused to mKO) (Escherichia coli) (UniProt P0A9A6); experiment: as above

B1: mCh–ZapA (wild-type Z-associated protein A fused to mCh) (natural protein, Escherichia coli, UniProt P0ADS2 1-109, looked up)
chain: MSAQPVDIQIFGRSLRVNCPPDQRDALNQAADDLNQRLQDLKERTRVTNTEQLVFIAALNISYELAQEKAKTRDYAASMEQRIRMLQQTIEQALLEQGRITEKTNQNFE
notes: Z-associated protein A (ZapA), Escherichia coli; also called mCh–ZapA^WT; ZapA^WT; source: E. coli TB28 ∆zapA or WT strain, expressed from plasmid pSAV077, in living cells; not shown: mCh, N-terminal, kept
With B1 the binding [1] was “no binding”.

B2: mCh–ZapA^I83E (in vitro non-tetramerizing ZapA mutant fused to mCh) (natural protein, Escherichia coli, UniProt P0ADS2 1-109, looked up)
chain: MSAQPVDIQIFGRSLRVNCPPDQRDALNQAADDLNQRLQDLKERTRVTNTEQLVFIAALNISYELAQEKAKTRDYAASMEQRERMLQQTIEQALLEQGRITEKTNQNFE
notes: Z-associated protein A (ZapA), Escherichia coli, with I83E; made by exchanging zapA in pSAV077 with zapA^I83E from pRP071; also called pNM137; pTHV–mCh–ZapA^I83E; source: E. coli TB28 ∆zapA or WT strain, expressed from plasmid pNM137, in living cells; not shown: mCh, N-terminal, kept
B2 was tested, and the binding [1] was “no binding” and the binding [2] was “binds”.

B3: mCh–PBP1b (PBP1b fused to mCh) (natural protein, UniProt P02919 1-844, looked up)
chain: MAGNDREPIGRKGKPTRPVKQKVSRRRYEDDDDYDDYDDYEDEEPMPRKGKGKGKGRKPRGKRGWLWLLLKLAIVFAVLIAIYGVYLDQKIRSRIDGKVWQLPAAVYGRMVNLEPDMTISKNEMVKLLEATQYRQVSKMTRPGEFTVQANSIEMIRRPFDFPDSKEGQVRARLTFDGDHLATIVNMENNRQFGFFRLDPRLITMISSPNGEQRLFVPRSGFPDLLVDTLLATEDRHFYEHDGISLYSIGRAVLANLTAGRTVQGASTLTQQLVKNLFLSSERSYWRKANEAYMALIMDARYSKDRILELYMNEVYLGQSGDNEIRGFPLASLYYFGRPVEELSLDQQALLVGMVKGASIYNPWRNPKLALERRNLVLRLLQQQQIIDQELYDMLSARPLGVQPRGGVISPQPAFMQLVRQELQAKLGDKVKDLSGVKIFTTFDSVAQDAAEKAAVEGIPALKKQRKLSDLETAIVVVDRFSGEVRAMVGGSEPQFAGYNRAMQARRSIGSLAKPATYLTALSQPKIYRLNTWIADAPIALRQPNGQVWSPQNDDRRYSESGRVMLVDALTRSMNVPTVNLGMALGLPAVTETWIKLGVPKDQLHPVPAMLLGALNLTPIEVAQAFQTIASGGNRAPLSALRSVIAEDGKVLYQSFPQAERAVPAQAAYLTLWTMQQVVQRGTGRQLGAKYPNLHLAGKTGTTNNNVDTWFAGIDGSTVTITWVGRDNNQPTKLYGASGAMSIYQRYLANQTPTPLNLVPPEDIADMGVDYDGNFVCSGGMRILPVWTSDPQSLCQQSEMQQQPSGNPFDQSSQPQQQPQQQPAQQEQKDSDGVAGWIKDMFGSN
notes: PBP1b; Negative control in the FRET assay; also called pBB008; pTHV–mCh–PBP1b; source: E. coli TB28 ∆zapA, expressed from plasmid pBB008, in living cells; not shown: mCh, N-terminal, kept
With B3 the binding [1] was “no binding”.
